Laboratory results: PubChem BioAssay AID1053208 (Peter MacCallum Cancer Centre, 2014)
This is a random part of about 17,000 reagents tested. 788 of them (4.7%) count as active. 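Calls rest on z-score classes alone; an extra cut-off of viability at most 70% of control was not applied to them.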 Further read-outs or replicates are left out here.

Aim: 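Genes whose silencing cuts survival of bone tumour cells only with doxorubicin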 (primary screen)
System: mouse osteosarcoma cells, early-passage culture from an engineered mouse model of fibroblastic bone tumour
Knock-down reagent: siRNA pool against mouse genes, 40 nM
Time to read-out: about 120 h (48 h before drug, then 72 h with drug)
Conditions: doxorubicin 100 nM for 72 h, roughly 30-40% inhibitory dose
Measurement: 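Viability read as ATP luminescence after 72 h of 100 nM doxorubicin or none, duplicate wells averaged, scaled to non-targeting siRNA, then expressed as robust z-scores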
Scale: viability z-score with doxorubicin: higher = more viable cells under doxorubicin; viability z-score without drug: higher = more viable cells with knock-down alone
Hit rule: 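a pool counts as active when its viability z-score with doxorubicin is -2 or below and its z-score without drug lies between -2 and 2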

Against Pphln1 (periphilin 1), the values are combined z-score class low cell count with doxorubicin only; viability z-score with doxorubicin -2.36; viability z-score without drug 0.34; active.
Against Sesn3 (sestrin 3), the values are combined z-score class no change with or without drug; viability z-score with doxorubicin 1.12; viability z-score without drug 0.51; inactive.
Against Rbm18 (RNA binding motif protein 18) the deposit lists combined z-score class no change with or without drug; viability z-score with doxorubicin 1.57; viability z-score without drug -0.51; inactive.
Slc9b1 scored combined z-score class high cell count without drug only; viability z-score with doxorubicin 1.24; viability z-score without drug 2.02; inactive.
Ap5z1 (adaptor-related protein complex 5, zeta 1 subunit) showed combined z-score class low cell count with doxorubicin only; viability z-score with doxorubicin -4.27; viability z-score without drug -1.52; active.
For Ptpre (protein tyrosine phosphatase receptor type E), the values are combined z-score class no change with or without drug; viability z-score with doxorubicin 0.34; viability z-score without drug 0.51; inactive.
Depletion of Tpcn1 (two pore channel 1) gave: combined z-score class no change with or without drug; viability z-score with doxorubicin 0.45; viability z-score without drug -0.51; inactive.
Knock-down of Tm2d1 (TM2 domain containing 1) gave: combined z-score class no change with or without drug; viability z-score with doxorubicin -0.45; viability z-score without drug 1.01; inactive.
After knock-down of Vcam1 (vascular cell adhesion molecule 1) the results were combined z-score class no change with or without drug; viability z-score with doxorubicin 0.34; viability z-score without drug 0.17; inactive.
Rad17 (RAD17 checkpoint clamp loader component) showed combined z-score class no change with or without drug; viability z-score with doxorubicin 1.8; viability z-score without drug 0; inactive.
With knock-down of Gpatch1 (G patch domain containing 1) the results were combined z-score class no change with or without drug; viability z-score with doxorubicin 0.9; viability z-score without drug 0.51; inactive.
Serp1 (stress-associated endoplasmic reticulum protein 1) scored combined z-score class no change with or without drug; viability z-score with doxorubicin 0.9; viability z-score without drug -0.51; inactive.
Knock-down of Orc6 (origin recognition complex, subunit 6) came out at: combined z-score class high cell count without drug only; viability z-score with doxorubicin 1.01; viability z-score without drug 2.7; inactive.
With knock-down of Adgrg3 (adhesion G protein-coupled receptor G3), the screen gave combined z-score class no change with or without drug; viability z-score with doxorubicin 1.01; viability z-score without drug 1.85; inactive.
Dcun1d3 (defective in cullin neddylation 1 domain containing 3) scored combined z-score class no change with or without drug; viability z-score with doxorubicin -1.46; viability z-score without drug -1.18; inactive.
Depletion of H3c15 (H3 clustered histone 15) resulted in: combined z-score class no change with or without drug; viability z-score with doxorubicin -0.22; viability z-score without drug -1.85; inactive.
For Cdkal1 (CDK5 regulatory subunit associated protein 1-like 1), the values are combined z-score class no change with or without drug; viability z-score with doxorubicin 0.34; viability z-score without drug 0; inactive.
With knock-down of Rrm2 (ribonucleotide reductase M2), the screen gave combined z-score class low cell count with doxorubicin only; viability z-score with doxorubicin -3.37; viability z-score without drug -1.69; active.
Depletion of Lrrc57 (leucine rich repeat containing 57) resulted in: combined z-score class no change with or without drug; viability z-score with doxorubicin 0; viability z-score without drug -1.35; inactive.
After knock-down of Plscr3 (phospholipid scramblase 3), the record shows combined z-score class no change with or without drug; viability z-score with doxorubicin -0.45; viability z-score without drug -0.17; inactive.
Against Ube2k (ubiquitin-conjugating enzyme E2K), the values are combined z-score class high cell count without drug only; viability z-score with doxorubicin 1.12; viability z-score without drug 2.7; inactive.
With knock-down of Zar1 (zygote arrest 1), the screen gave combined z-score class no change with or without drug; viability z-score with doxorubicin 0; viability z-score without drug 0.51; inactive.
For Top3b (topoisomerase (DNA) III beta), the entry reads combined z-score class no change with or without drug; viability z-score with doxorubicin 0.45; viability z-score without drug 0.34; inactive.
Anp32e (acidic nuclear phosphoprotein 32 family member E) showed combined z-score class no change with or without drug; viability z-score with doxorubicin -0.9; viability z-score without drug -0.51; inactive.
Epha6 (Eph receptor A6) gave combined z-score class no change with or without drug; viability z-score with doxorubicin 0.9; viability z-score without drug 0.67; inactive.
With knock-down of Commd10 (COMM domain containing 10), the record shows combined z-score class no change with or without drug; viability z-score with doxorubicin 0.45; viability z-score without drug 0.17; inactive.
With knock-down of Ocrl (OCRL, inositol polyphosphate-5-phosphatase) the results were combined z-score class no change with or without drug; viability z-score with doxorubicin -0.45; viability z-score without drug -1.35; inactive.
Arhgdib (Rho, GDP dissociation inhibitor beta) scored combined z-score class no change with or without drug; viability z-score with doxorubicin -0.45; viability z-score without drug 0.17; inactive.

Sorted by “viability z-score without drug” (lowest first): some entries from above
Anp32e (acidic nuclear phosphoprotein 32 family member E): combined z-score class = no change with or without drug; viability z-score with doxorubicin = -0.9; viability z-score without drug = -0.51; Outcome = inactive
Commd10 (COMM domain containing 10): combined z-score class = no change with or without drug; viability z-score with doxorubicin = 0.45; viability z-score without drug = 0.17; Outcome = inactive
Epha6 (Eph receptor A6): combined z-score class = no change with or without drug; viability z-score with doxorubicin = 0.9; viability z-score without drug = 0.67; Outcome = inactive
